These results are taken from the supplement of paper PMC3334620.

In all, about 33,000 sequences were measured (“E-score (-0.5 to 0.5)”: median about -8e-05, highest 2% from about 0.23 on). The list shows a part of the results.

The target in this test is T1, Nrg2 (UniProt P38082).
T1 sequence: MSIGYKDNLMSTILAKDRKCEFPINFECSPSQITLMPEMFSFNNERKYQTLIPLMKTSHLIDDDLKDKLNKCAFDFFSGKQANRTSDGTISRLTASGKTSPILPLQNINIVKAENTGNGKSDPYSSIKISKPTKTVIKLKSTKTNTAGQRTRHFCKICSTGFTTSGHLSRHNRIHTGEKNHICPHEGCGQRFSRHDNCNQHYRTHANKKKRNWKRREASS
As to the kind of experiment: PBM E-score (8-mer binding enrichment) (E-score (-0.5 to 0.5)); higher = stronger / more preferred TF binding. Conditions: protein concentration: 100 nM; construct: GST-full length. Put shortly:
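Yeast transcription factors carrying a GST tag, as full-length proteins or DNA-binding domains, were produced by PURExpress in vitro transcription/translation. About 100-200 nM protein was applied to universal all-10-mer Agilent arrays, double-stranded by primer extension on fresh or once-stripped slides. Bound protein was detected with fluorescent anti-GST, and scans were normalised with masliner. The Universal PBM Analysis Suite gave each ungapped eight-base word, pooled with its reverse complement, an E-score, a modified Wilcoxon-Mann-Whitney statistic.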
On to AGCGCAGA, for which the “PBM E-score” value came to 0.00305.
Consider GCATTCCA, for which the “PBM E-score” value was -0.0929.
AAAACTAA: the “PBM E-score” value is 0.234.
To ATGGTGAA belongs -0.0969; to CTGATGCA, 0.128.
To ATGAATCC belongs 0.13; to ATCTTTAG, -0.0408; to ACAGCGAT, -0.201.
For CGATGACC the value was -0.00928; for CGTCCTGC, -0.116.
Take CCGATGAC: the “PBM E-score” value is -0.096.
To AGTCGCGC belongs 0.174; to CCACTCGG, -0.123.
To TATACGCA belongs 0.136; to CAAACAGA, 0.0979.
For ATTCCGCC the value was 0.171; for CGGCTCCA, -0.114.
For ACCAATTC, the “PBM E-score” value turned out to be 0.0263.
For CCAGTGCG the value was -0.212; for CATGTTGC, -0.0978.
As for ATCTAGGA, the “PBM E-score” value stood at 0.125.
To AATAAGGT belongs 0.0484; to ATGATAAG, 0.0805.
For ACAAGCGT the value was 0.0207; for GCAGGAGA, 0.00405; for ACCACTTA, 0.0402.
For CAGGTCGG the value was -0.0695; for CTTATTGA, 0.0171; for GACCCAGC, -0.333.
With CTATCCGC, the “PBM E-score” value came to 0.144.
As for ATACTACG, the “PBM E-score” value was 0.154.
To AGCGGGCG belongs -0.0722; to CAGCCATC, 0.0587; to GCGTCTAC, -0.163.
For ACCCGTAT the value was -0.104.
For AGATTCTA the value was -0.0259.
As to CACGAATA, the “PBM E-score” value stood at 0.193.
In the case of CAAAGTAC, the “PBM E-score” value is -0.0816.
For AATTAAAC, the “PBM E-score” value was 0.175.
To GCAAGGAA belongs 0.0335; to AGGCTTAG, -0.0575; to ACTAGGGA, -0.147.
In the case of ACTACCAT, the “PBM E-score” value stood at 0.0215.
Consider AGATGGGC, for which the “PBM E-score” value turned out to be 0.0593.
To TAGTAATA belongs 0.177; to AAGCTTAT, 0.0868; to CCATTCGG, 0.00625.
Regarding AAGAGACT, the “PBM E-score” value was -0.298.
To AACAACAC belongs 0.169.
For AGATATCT the value was 0.209; for CTCGGTAA, -0.0475; for CATCAATA, 0.182.
For CGAAACCA the value was 0.0804; for ACCGATAT, 0.0668.
Regarding AACATTAC, the “PBM E-score” value is 0.0574.
Consider ACAAACGC, for which the “PBM E-score” value was 0.0288.
To CAATAGGA belongs -0.149; to CGAACCCG, -0.0536.
To ACGCCGAA belongs -0.0379.
For GCAGGGGC the value was 0.0473.
As to GTCTGATA, the “PBM E-score” value is -0.066.
For AGAAACCG, the “PBM E-score” value worked out at 0.145.
For CGCTCTAC the value was -0.0442; for AGGCTCGG, -0.249.
To ATTGCCGG belongs -0.0502.
For CAGCGCAC the value was -0.155; for ACTTTACA, 0.0269; for TATTGGAA, -0.236.
As to CCCGACTA, the “PBM E-score” value is -0.119.
For CGGATAAA the value was 0.234; for GTCTAATA, -0.137.
For TCGGGAAA the value was 0.0979.
To AAACGCAT belongs -0.216.
For the sequence TATGATAA, the “PBM E-score” value was 0.219.
For CCATCCGA the value was 0.118; for ATTTGACA, -0.0488.
To ATAATCAA belongs 0.0599; to CGGCGGAG, -0.064.
For AGAGTGCC the value was -0.0757.
Turning to GCAATTTA, the “PBM E-score” value came to 0.126.
For CTAAGGGC the value was 0.0457.
To AAAGTAGA belongs 0.0791; to GATCGCTA, -0.104; to GCACTGGA, 0.0259.
To CTCAGGGA belongs 0.319; to GCCAATCC, -0.0196.
